Counter-ions that a name gives are not always drawn. This is one part of the list. Hit calls seldom repeat between salt and free forms of one compound.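 Kinases were expressed as nanoluciferase fusions in K562 cells and luminescence was read every 4 h between 2 and 18 h as percent of control, DMSO set to 100% and a positive control to 0%. A time point counts as decreased when the signal drops significantly (2 sigma). The hit call is the authors' own, does not follow from the count of time points alone, and its rule is not shown.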
Each compound was assayed against ABL1 (UniProt P00519) (assay: number of time points (of 5) at which kinase-Nluc abundance scored as decreased, DMSO-normalised (count); higher = more persistent destabilization). Settings: K562; 2-18 h.

Amino acid sequences for entries named in this document (tags omitted).
UniProt P00519, whole entry: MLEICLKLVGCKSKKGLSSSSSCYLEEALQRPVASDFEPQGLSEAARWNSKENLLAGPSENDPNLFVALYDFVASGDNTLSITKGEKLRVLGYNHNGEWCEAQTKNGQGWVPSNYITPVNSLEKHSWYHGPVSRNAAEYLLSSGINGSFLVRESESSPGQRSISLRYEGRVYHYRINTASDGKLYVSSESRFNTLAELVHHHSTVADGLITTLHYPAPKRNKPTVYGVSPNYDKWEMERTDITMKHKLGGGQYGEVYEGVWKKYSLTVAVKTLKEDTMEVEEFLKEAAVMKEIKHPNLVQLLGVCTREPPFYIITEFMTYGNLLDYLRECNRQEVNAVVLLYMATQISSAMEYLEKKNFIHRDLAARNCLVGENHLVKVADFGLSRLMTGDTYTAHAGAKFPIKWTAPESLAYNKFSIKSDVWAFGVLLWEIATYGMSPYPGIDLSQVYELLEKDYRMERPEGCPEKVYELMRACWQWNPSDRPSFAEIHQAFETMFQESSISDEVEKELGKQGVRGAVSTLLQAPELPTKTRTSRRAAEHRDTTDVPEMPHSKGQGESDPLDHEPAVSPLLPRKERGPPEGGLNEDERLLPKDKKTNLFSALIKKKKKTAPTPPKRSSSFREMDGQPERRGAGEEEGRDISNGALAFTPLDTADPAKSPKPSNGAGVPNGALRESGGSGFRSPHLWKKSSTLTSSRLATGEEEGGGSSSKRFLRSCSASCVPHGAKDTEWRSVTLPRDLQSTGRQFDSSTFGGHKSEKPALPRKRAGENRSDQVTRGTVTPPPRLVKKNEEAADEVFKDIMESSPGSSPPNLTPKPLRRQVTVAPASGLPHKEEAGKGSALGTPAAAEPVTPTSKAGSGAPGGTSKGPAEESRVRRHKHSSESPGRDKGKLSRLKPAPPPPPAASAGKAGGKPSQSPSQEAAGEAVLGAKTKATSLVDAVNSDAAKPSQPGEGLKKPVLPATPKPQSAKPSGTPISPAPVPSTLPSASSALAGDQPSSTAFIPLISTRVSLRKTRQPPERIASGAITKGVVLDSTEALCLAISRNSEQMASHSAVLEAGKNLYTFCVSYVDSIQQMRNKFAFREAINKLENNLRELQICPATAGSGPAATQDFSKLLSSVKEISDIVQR

| SMILES | number of time points |
| --- | --- |
| CN1CC[C@@H](c2c(O)cc(O)c3c(=O)cc(-c4ccc(C(F)(F)F)cc4Cl)oc23)[C@@H]1CO [Voruciclib (hydrochloride)] (10 µM) | 0 |
| O=c1cc(-c2cccc3c2Sc2ccccc2S3)oc(N2CCOCC2)c1 (10 µM) | 0 |
| O=[N+]([O-])c1ccc(Nc2nc(N3CCOCC3)nc(N3CCOCC3)n2)cc1 (10 µM) | 0 |
| c1ccc(-c2nc(=NCCN3CCOCC3)sn2-c2ccccc2)cc1 [VP3.15 (dihydrobromide)] (10 µM) | 0 |
| Nc1nc(N)c2nc(-c3cccc(O)c3)cnc2n1 (10 µM) | 0 |
| Nc1ncnc2c1c(-c1ccc(Oc3ccccc3)cc1)nn2C1CCN(CCOCCOCCOc2ccc3c(c2)CN(C2CCC(=O)NC2=O)C3=O)CC1 (stereo not drawn) (2.5 µM) | 0 |
| C=CC(=O)N1C[C@H](COc2nc(Nc3cnn(C)c3)nc3[nH]cc(Cl)c23)[C@@H](OC)C1 (2.5 µM) | 0 |
| Cc1nn(C)c2c1C(c1ccc(C(F)(F)F)cc1)C(C#N)=C(N)O2 (stereo not drawn) (10 µM) | 0 |
| O=C(NC1CCOCC1)c1ccc(-c2cc(-c3c[nH]nc3-c3ccccn3)ccn2)cc1 (10 µM) | 0 |
| CC/C(=N\NC(=O)c1ccnc(NCCCN2CCOCC2)c1)c1ccc(Cl)cc1O (2.5 µM) | 0 |
| COc1cc(N2CCOCC2)ccc1Nc1ncc(Cl)c(Nc2ccccc2NS(C)(=O)=O)n1 (2.5 µM) | 0 |
| Cn1cnc([N+](=O)[O-])c1C[N+](C)(C)C/C=C/C(=O)Nc1cc2c(Nc3ccc(Cl)c(Br)c3)ncnc2cn1 [Tarloxotinib (bromide)] (10 µM) | 0 |
| O=C(Nc1cccc(C(F)(F)F)c1)c1cccc2cc(Oc3cc(CO)ncn3)ccc12 (10 µM) | 0 |
| Oc1ccc(/C=C/c2cc(O)cc(O)c2)cc1 [Resveratrol] (10 µM) | 0 |
| O=c1[nH]c(C2CCCN2)nc2c1oc1ccc(Cl)cc12 (stereo not drawn) [XL413 (hydrochloride)] (10 µM) | 0 |
| CN(c1ccc(NC(=O)Nc2ccc(OC(F)(F)F)cc2)cc1)c1ccnc(Nc2cccc(S(N)(=O)=O)c2)n1 (2.5 µM) | 2 |
| C=C[C@@](C)(/C=C/c1ccc(O)cc1)CCC=C(C)C [Bakuchiol] (10 µM) | 0 |
| COc1cc2ncnc(-n3nc(-c4ccccn4)nc3N)c2cc1OC (10 µM) | 0 |
| CNc1nc(Nc2ccc(C(=O)N3CCOCC3)cc2OC)ncc1Cl (2.5 µM) | 0 |

| SMILES | number of time points |
| --- | --- |
| CC(C)S(=O)(=O)c1ccc2nccc(Nc3ccc4scnc4c3)c2c1 (10 µM) | 0 |
| CC(C)(O)[C@H]1CC[C@H](Nc2ccc3ncc(-c4cccc(C(F)(F)F)c4)n3n2)CC1 (10 µM) | 0 |
| CCN(CC)c1ccc2cc(-c3nc4cc(C)ccc4o3)c(=O)oc2c1 (10 µM) | 0 |
| CN(C)S(=O)(=O)c1ccc2c(c1)/C(=C/c1cc3c([nH]1)CCCC3)C(=O)N2 (2.5 µM) | 4 |
| C=CC(=O)Nc1cc(Nc2nccc(-n3cc(CN(C)C)c(-c4ccccc4)n3)n2)c(OC)cc1N1CCOCC1 [Lazertinib] (10 µM) | 0 |
| Cc1ccc2c(Nc3cccc(Cl)c3F)nccc2c1NC(=O)c1csc2c(N)ncnc12 [Belvarafenib] (10 µM) | 0 |
| Oc1cc(O)c2c(c1)OC1(c3ccc(O)c(O)c3)Oc3cc(O)c4c(c3C2C1O)OC(c1ccc(O)c(O)c1)C(O)C4 (stereo not drawn) [Procyanidin A1] (10 µM) | 0 |
| c1ccc(-c2nc3c(c(-n4ccc5cnccc54)n2)CCC3)nc1 (10 µM) | 0 |
| Cc1cc(C)nc(NS(=O)(=O)c2ccc(NC(=S)NC(=O)COc3ccc(Br)cc3Cl)cc2)n1 (2.5 µM) | 0 |
| Cc1ccc(NC(=O)c2ccc(CN(CCN(C)C)C(=O)c3cccnc3)cc2)cc1Nc1nccc(-c2cccnc2)n1 [PDGFRα kinase inhibitor 1] (10 µM) | 0 |
| C[C@H](Nc1ncnc2[nH]cnc12)c1cc2ccc(F)cc2nc1-c1ccccn1 (10 µM) | 0 |
| CN(C)CCC=C1c2ccccc2CCc2ccccc21 [Amitriptyline (hydrochloride)] (2.5 µM) | 0 |
| O=C1/C(=C\c2ccc(Cl)cc2)C=C(c2ccccc2)N1c1ccc(O)cc1 (2.5 µM) | 0 |
| C[C@@H]1CCNC(=O)c2cc3ccc(C(=O)Nc4nc5ccccc5n4CCCN(C)C)cc3n21 (10 µM) | 0 |
| COc1c(Nc2cc(C)[nH]n2)nc(Sc2ccc(S(=O)(=O)Cc3cccc([N+](=O)[O-])c3F)cc2F)nc1N1CCCCC1 [Centrinone-B] (2.5 µM) | 0 |
| COc1ccc(/C=C/C(=O)C2(C(=O)/C=C/c3ccc(OC)c(OC)c3)CCCCC2)cc1OC (2.5 µM) | 1 |
| CN(C)c1nc2c(Br)c(Br)c(Br)c(Br)c2[nH]1 (10 µM) | 0 |
| O=C(Nc1nc(=O)n(Cc2ccc(Cl)cc2)s1)c1ccc(Cl)cc1 (10 µM) | 0 |
| Nc1n[nH]c2nc(-c3ccc(NS(=O)(=O)c4cc(Cl)ccc4F)cc3)cnc12 (10 µM) | 0 |

By substructure, those above containing a CF3 group (five)

| SMILES | number of time points |
| --- | --- |
| CN1CC[C@@H](c2c(O)cc(O)c3c(=O)cc(-c4ccc(C(F)(F)F)cc4Cl)oc23)[C@@H]1CO [Voruciclib (hydrochloride)] (10 µM) | 0 |
| Cc1nn(C)c2c1C(c1ccc(C(F)(F)F)cc1)C(C#N)=C(N)O2 (stereo not drawn) (10 µM) | 0 |
| O=C(Nc1cccc(C(F)(F)F)c1)c1cccc2cc(Oc3cc(CO)ncn3)ccc12 (10 µM) | 0 |
| CN(c1ccc(NC(=O)Nc2ccc(OC(F)(F)F)cc2)cc1)c1ccnc(Nc2cccc(S(N)(=O)=O)c2)n1 (2.5 µM) | 2 |
| CC(C)(O)[C@H]1CC[C@H](Nc2ccc3ncc(-c4cccc(C(F)(F)F)c4)n3n2)CC1 (10 µM) | 0 |

From the supplement of paper PMC12823440, “Inhibitors supercharge kinase turnover through native proteolytic circuits” (Nature, 2025)
